Test results: paper doi:10.1101/2021.06.24.449730
No constants are given. Whether binding was seen depends on the method and setting. In cells and extracts the contact can be indirect. Binding can be weak; no strength is given. Sequences can lack the tags named with a protein.

T1: full-length RanGAP2-GFP (N. benthamiana) (UniProt A5JGX6)
T1 sequence: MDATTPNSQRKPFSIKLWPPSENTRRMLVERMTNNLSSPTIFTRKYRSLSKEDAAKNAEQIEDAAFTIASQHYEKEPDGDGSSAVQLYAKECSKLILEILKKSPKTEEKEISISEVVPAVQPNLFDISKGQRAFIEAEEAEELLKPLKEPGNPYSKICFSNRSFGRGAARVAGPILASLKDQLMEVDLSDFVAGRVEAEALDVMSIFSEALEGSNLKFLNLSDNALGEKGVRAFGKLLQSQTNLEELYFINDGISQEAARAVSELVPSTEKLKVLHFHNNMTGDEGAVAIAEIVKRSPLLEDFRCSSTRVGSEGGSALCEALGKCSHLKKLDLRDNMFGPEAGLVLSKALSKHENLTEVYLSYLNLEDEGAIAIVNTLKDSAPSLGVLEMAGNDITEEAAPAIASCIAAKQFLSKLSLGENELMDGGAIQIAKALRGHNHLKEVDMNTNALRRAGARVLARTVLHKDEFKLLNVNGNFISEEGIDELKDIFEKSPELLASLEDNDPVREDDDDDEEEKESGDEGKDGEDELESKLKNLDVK

B1: full-length RanGAP2-GFP (protein, UniProt A5JGX6 1-541)
chain: T1 sequence

Assays:
Test in all cases: co-IP
[1] = molecular target: T1, full-length RanGAP2-GFP (N. benthamiana)
co-IP = substrate: CC domain of Rx1 (potato (Solanum tuberosum spp. andigena))
[2] = molecular target: full-length Gpa2 N-terminally tagged with 4×Myc (potato (Solanum tuberosum spp. andigena)) (UniProt Q9S7Q4)
[3] = molecular target: full-length Rx1 tagged with 4×Myc (potato (Solanum tuberosum spp. andigena))

Molecule | binding [1] | binding (co-IP) | binding [2] | binding [3]
Gp-RBP-1 variant D383-1, 8×HA-tagged (Globodera pallida) | binds | – | – | –
Gp-RBP-1 variant Rook4, 8×HA-tagged (Globodera pallida) | binds | – | – | –
coat protein of Potato Virus X strain HB (CP105), 4×HA-tagged | binds | – | – | –
coat protein of Potato Virus X strain UK3 (CP106), 4×HA-tagged | binds | – | – | –
B1 | – | binds | binds | binds
